Data: the RNAGym collection of RNA variant scans (doi:10.1126/science.aae0568)
Variants at the background level are over-represented here.

B1: tRNA (parent)
chain: GUUCCGUUGGCGUAAUGGUAACGCGUCUCCCUCCUAAGGAGAAGACUGCGGGUUCGAGUCCCGUACGGAACG

Variants of: B1
Test: yeast fitness relative to wild type (ratio to wild type); higher = fitter; tRNA-Arg(CCU), competitive growth, 37 C, YPD
In short: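 For this measurement, the tRNA-Arg(CCU) gene was varied by chemical synthesis at a 3% per-site mutation rate across 69 sites, and each variant was placed at the native genomic locus in Saccharomyces cerevisiae. The pooled strains went through a 24-hour competition in YPD at 37°C in six parallel replicates, with amplicons from start and end populations read by 100-nucleotide paired-end sequencing. Darwinian fitness relative to wild type followed from the change in each genotype's frequency. Genotypes needed ≥ 100 starting reads, and estimates < 0.5 were set to 0.5.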

Row | Variant | yeast fitness
1 | GUUCCAUUGGAGUAAUGGAAACGCGUCUCCCUCCUAAGGAGAAGACUGCGGGUUCAAGUCCCGUACGGUACG [G6A C11A U19A G56A A69U] | ≤ 0.5
2 | GUUCCAUUGGGGUAAUGGUGACGCGUCCCCCUCCUAAGGAGAAGACUGCGGGUUCGAGUCCCGUACGGAACG [G6A C11G A20G U28C] | ≤ 0.5
3 | GUUCCAUUGGGGUAAUGGUAGCGCGUGUUCCUCCGAAGGAGAAGACUGCGGGUUCGAGUCCUGUACGGAACG [G6A C11G A21G C27G C29U U35G C62U] | ≤ 0.5
4 | GUUCCAUUGGGGUAAUGGUAACGCGUCUCCCUGCUAAGGAGAAGACUGCGGGUUCGAGUCCCGUACGGAACG [G6A C11G C33G] | ≤ 0.5
5 | GUUCCAUUGGGGUAAUGGUAACGCGUCUCCCUCGUAAGGAGGAGACUGCGGGUUCGAGUCCCGUACGGAACG [G6A C11G C34G A42G] | ≤ 0.5
6 | GUUCCAUUGGUGUAAUGGUAACGCGUCUCCCUCCUAAGGAGAUGACUGCGGGUUCGAGUCCGGUAAGGCACG [G6A C11U A43U C62G C66A A69C] | ≤ 0.5
7 | GUUCCAUUGGUGUAAUGGUAACGCGUAACCCUCCUAAGGGGAAGACUGCGGGUUCGAGUCCCGUACGGAACG [G6A C11U C27A U28A A40G] | ≤ 0.5
8 | GUUCCAUUGGUGUAAUGGUAACGCGUCUCCGUCCUAAGGAGAAGACUGCGAGUUCGAGUCCCGUACAGAACG [G6A C11U C31G G51A G67A] | ≤ 0.5
9 | GUUCCAUUGGUGUAAUGGUAACGCGUCUCCCUCCUAAGGAGAAGACUGCGGGUUAGAGUCCGGUUCGGAACG [G6A C11U C55A C62G A65U] | ≤ 0.5
10 | GUUCCAUUGGUGUAAUGGUAACGCGUCUCCCUCCUAAGGAGAAGACUGCAGGUUCGAGUCCCGUACGGAUCG [G6A C11U G50A A70U] | ≤ 0.5
11 | GUUCCAUUGGUGUAAUGGUAACGCGUCUCCCUCCUAAGGAGAAGACUGCGGGUUCGAGUCCCGUACGAAACG [G6A C11U G68A] | ≤ 0.5
12 | GUUCCAUUGGCGUAAUGGUAACGGGUCUCACUCCUAAGGAGAAGACCGCGGGUUCGAGUCCCGUACGGAACG [G6A C24G C30A U47C] | ≤ 0.5
13 | GUUCCAUUGGCGUAAUGGUAACGUGUCUACCUCCUAAGGAGAAGACUGCGGGUUCGAGUCGCGUAUGGUACG [G6A C24U C29A C61G C66U A69U] | ≤ 0.5
14 | GUUCCAUUGGCGUAAUGGUAACGUCUCUCCCUCCUAAGGAGAAGACUGCGGGUUCGAGUCCCGUACGGAACG [G6A C24U G25C] | ≤ 0.5
15 | GUUCCAUUGGCGUAAUGGUAACGUGUCUCCCUCCUAAGGAGAAGACUGCGGAUUCGAGUCACGUACGGAACG [G6A C24U G52A C61A] | ≤ 0.5
16 | GUUCCAUUGGCGUAAUGGUAACGCGUGUCCCUCCUAAGGAGAAGACUGCGGGUUCGAGUCCCGUACGGAACG [G6A C27G] | 0.758
17 | GUUCCAUUGGCGUAAUGGUAACGCGUUUGCCUCCUAAGGAGAAGACUGCGGGUUCGAGUCUCGUACGGAACG [G6A C27U C29G C61U] | ≤ 0.5
18 | GUUCCAUUGGCGUAAUGGUAACGCGUUUCCCUCCUAAGGAGAAGAAUGCGGGUUGGAGUCCCGUACGGAACG [G6A C27U C46A C55G] | ≤ 0.5
19 | GUUCCAUUGGCGUAAUGGUAACGCGUCUACCUCCUAAGGAGAAGACUGCGGGUUCGAGUCCCGUACGGCUCG [G6A C29A A69C A70U] | ≤ 0.5

Row | Variant | yeast fitness
20 | GUUCCAUUGGCGUAAUGGUAACGCGUCUACCUCCUAAGGAGAAGACUGCGGGUUCGAGUCCCGUACCGAACG [G6A C29A G67C] | ≤ 0.5
21 | GUUCCAUUGGCGUAAUGGUAACGCGUCUGCCCCCUAAGGAGAAGACUGCGGGUUCGAGUCCCGUACGGAACG [G6A C29G U32C] | 0.548
22 | GUUCCAUUGGCGUAAUGGUAACGCGUCUGCCCCCUAAGGAGAAGACUGCGGGUUCGAGUCCCGUACGGGACG [G6A C29G U32C A69G] | ≤ 0.5
23 | GUUCCAUUGGCGUAAUGGUAACGCGUCUCACUCCUAAGGAGAAGUCUGCGGGUUCGAGUCCCAUACGGAACG [G6A C30A A45U G63A] | ≤ 0.5
24 | GUUCCAUUGGCGUAAUGGUAACGCGUCUCGCUCCUAAGGAGAAGACUGCGGGUUCGAGUCCCGUACGGAGCG [G6A C30G A70G] | ≤ 0.5
25 | GUUCCAUUGGCGUAAUGGUAACGCGUCUCUCUCCUAAGGAGAAGUCUGCGGGUUCGCGUCCCGUACGGAACG [G6A C30U A45U A57C] | ≤ 0.5
26 | GUUCCAUUGGCGUAAUGGUAACGCGUCUCUCUCCUAAGGAGAAGACUGCGAUUUCCAGUCCCGUACGGAACG [G6A C30U G51A G52U G56C] | ≤ 0.5
27 | GUUCCAUUGGCGUAAUGGUAACGCGUCUCCAUCCUACGGAGAAGACUGCGGGUUCGAGUCCCGUACGGAACG [G6A C31A A37C] | ≤ 0.5
28 | GUUCCAUUGGCGUAAUGGUAACGCGUCUCCAUCCUAAGGAGAAGACUGCGGGUUCGAGUACCGUACGGAACG [G6A C31A C60A] | ≤ 0.5
29 | GUUCCAUUGGCGUAAUGGUAACGCGUCUCCCUCGUAGGGAGAAGACUGCGGGUUCGAGUCCCGUACGGAACG [G6A C34G A37G] | ≤ 0.5
30 | GUUCCAUUGGCGUAAUGGUAACGCGUCUCCCUCCUAAGGAGAAGACUGCGGGUUCGAGUCCAGUACGGACCG [G6A C62A A70C] | 0.636
31 | GUUCCAUUCGCGUGAUGGUAACGCGUCUCCCUCCUAAGGAGAAGACUGCGGGUUCGAGUCCCGUACGGAACG [G6A G9C A14G] | ≤ 0.5
32 | GUUCCAUUCGCGUAGUGGUAACGCGUCUCCCUCCUAAGGAGAAGACUGUGGGUUCGAGUCCCGUACGGAACG [G6A G9C A15G C49U] | ≤ 0.5
33 | GUUCCAUUCGCGUAAUGGUUACGCGUCUCCCUCCUAAGGAGAAGACUGCGAGUUCGAGUCCCGUACGGAACG [G6A G9C A20U G51A] | ≤ 0.5
34 | GUUCCAUUCGCGUAAUGGUAACGUGUCUCGAUCCUAAGGAGAGGACUGCGGGUUCGAGUCCCGUCCGGAACG [G6A G9C C24U C30G C31A A43G A65C] | ≤ 0.5
35 | GUUCCAUUGCCGUAAUGGUAACGCGUCUGCCUCCUAAGGAGAAGACUGCGGGUUCGAGUCCCGUACGGAACG [G6A G10C C29G] | ≤ 0.5
36 | GUUCCAUUGCCGUAAUGGUAACGCGUCUGCCUCCGAAGGAGAAGACUGCGGGUUCGAGUCUCGUACGGAACG [G6A G10C C29G U35G C61U] | ≤ 0.5
37 | GUUCCAUUGGCAUAAUGGUGAGGCGACUCCCUCCUAAGGAGAAGACUCCGGGUUCGAGUCCCGUACGAACCG [G6A G12A A20G C22G U26A G48C G68A A70C] | ≤ 0.5
